Results are given in words; binding and its absence hold for the method and conditions named. Some binding calls cover weakened binding; strength is not graded here.

Amino acid sequences for entries named in this document (tags omitted). Residues count along the entry.
UniProt Q13219, residues 82-1627: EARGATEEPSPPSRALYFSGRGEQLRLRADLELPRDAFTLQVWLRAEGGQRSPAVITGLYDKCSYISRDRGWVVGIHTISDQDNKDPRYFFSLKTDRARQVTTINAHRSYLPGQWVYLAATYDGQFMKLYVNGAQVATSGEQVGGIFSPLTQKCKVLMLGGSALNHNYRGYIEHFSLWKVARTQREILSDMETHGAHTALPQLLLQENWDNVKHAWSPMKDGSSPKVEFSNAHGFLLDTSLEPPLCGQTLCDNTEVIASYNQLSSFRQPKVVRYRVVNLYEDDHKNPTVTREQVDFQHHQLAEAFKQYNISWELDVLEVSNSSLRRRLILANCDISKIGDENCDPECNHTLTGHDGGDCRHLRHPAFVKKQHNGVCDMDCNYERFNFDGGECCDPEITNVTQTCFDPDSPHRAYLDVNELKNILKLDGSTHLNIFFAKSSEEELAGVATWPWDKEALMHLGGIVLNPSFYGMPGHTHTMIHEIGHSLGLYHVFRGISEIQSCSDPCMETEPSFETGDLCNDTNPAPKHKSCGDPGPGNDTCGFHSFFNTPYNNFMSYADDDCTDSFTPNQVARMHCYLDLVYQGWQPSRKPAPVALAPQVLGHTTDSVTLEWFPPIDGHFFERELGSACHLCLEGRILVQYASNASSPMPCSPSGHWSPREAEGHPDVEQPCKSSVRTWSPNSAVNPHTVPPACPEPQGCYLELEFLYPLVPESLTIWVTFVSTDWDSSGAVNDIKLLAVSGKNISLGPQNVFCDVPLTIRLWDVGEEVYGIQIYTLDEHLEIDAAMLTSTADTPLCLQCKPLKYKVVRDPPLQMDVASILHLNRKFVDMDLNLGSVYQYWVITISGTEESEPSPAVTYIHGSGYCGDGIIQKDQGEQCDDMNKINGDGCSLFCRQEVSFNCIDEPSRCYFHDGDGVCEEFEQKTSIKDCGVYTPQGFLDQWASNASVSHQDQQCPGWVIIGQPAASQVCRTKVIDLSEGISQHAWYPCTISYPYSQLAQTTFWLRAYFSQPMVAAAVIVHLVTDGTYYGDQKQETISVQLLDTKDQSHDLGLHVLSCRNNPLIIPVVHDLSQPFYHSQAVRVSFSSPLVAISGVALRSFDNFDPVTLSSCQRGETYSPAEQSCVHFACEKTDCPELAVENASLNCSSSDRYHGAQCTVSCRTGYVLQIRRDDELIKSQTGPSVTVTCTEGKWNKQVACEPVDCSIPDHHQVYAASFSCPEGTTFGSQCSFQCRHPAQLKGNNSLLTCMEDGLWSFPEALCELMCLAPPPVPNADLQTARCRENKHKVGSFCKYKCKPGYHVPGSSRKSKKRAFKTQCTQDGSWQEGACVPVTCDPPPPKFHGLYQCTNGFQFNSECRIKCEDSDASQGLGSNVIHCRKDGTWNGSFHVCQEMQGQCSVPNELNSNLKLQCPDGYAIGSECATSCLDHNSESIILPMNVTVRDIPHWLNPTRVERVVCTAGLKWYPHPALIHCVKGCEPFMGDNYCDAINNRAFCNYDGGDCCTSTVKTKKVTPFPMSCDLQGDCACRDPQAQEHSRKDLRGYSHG

The assay deals with recombinant wild-type PAPP-A, MBP-His10 tagged (human) (UniProt Q13219). The experiment in a line: gel of covalent complexes (lanes of Supplementary Fig. S10b, c); PAPP-A WT or C1130S alone or with proMBP or STC2; kind of gel and samples not shown.

Take “recombinant wild-type PAPP-A, MBP-His10 tagged (from UniProt Q13219 82-1627) (enzyme)”: the binding result is recorded as “binds”.
